Measurements from publication doi:10.1101/2021.06.01.446532.
Results are given in words; binding and its absence hold for the method and conditions named. Binding seen in cells or lysates may run through a third protein. A result given as binding can be weak or reduced; the word gives no strength. Where a sequence is shown, tags or fusion partners need not be part of it.

The substances below were run against T1, LRRC23-FLAG (UniProt O35125) (assay: co-IP).
T1 sequence: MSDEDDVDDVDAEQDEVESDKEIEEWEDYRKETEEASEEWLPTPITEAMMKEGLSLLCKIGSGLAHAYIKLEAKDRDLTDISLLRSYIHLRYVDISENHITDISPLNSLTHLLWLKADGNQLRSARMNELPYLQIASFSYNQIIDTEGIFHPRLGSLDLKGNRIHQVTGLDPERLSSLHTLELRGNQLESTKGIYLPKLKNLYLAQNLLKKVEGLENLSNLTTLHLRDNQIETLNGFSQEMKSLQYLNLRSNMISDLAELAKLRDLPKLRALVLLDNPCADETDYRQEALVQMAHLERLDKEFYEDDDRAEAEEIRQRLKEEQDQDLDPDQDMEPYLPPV

binding, binds:
RSPH3A-HA, RSPH22-HA, RSPH3B-HA
